From patent publication US20250381169A1, “METHODS FOR TREATING RENAL DISEASE” (Arizona Board of Regents on Behalf of the University of …, priority 2022, published 2025)

What was measured:
[1] = test system: aged mouse kidneys (renal cortex); test: Global metabolomics of renal cortex in aged mice; type: in vivo
Method: Aged 22-month-old male C57B/6J mice were administered 1.0 mg/kg of MC16 or normal saline every other day over a 21-day interval (n=8-9/group). Seven-month-old C57B/6J male mice (controls) were administered normal saline every other day over a 21-day interval (n=7). Kidneys were harvested and snap frozen in liquid nitrogen. Renal cortex biopsies were analyzed by Metabolon for global metabolomic analyses. Briefly, samples were processed and divided into four fractions: two for analysis by RP/UPLC-MS/MS with (+) ion mode electrospray ionization (IMESI), one for RP/UPLC-MS/MS with (−) IMESI, and one for HILIC/UPLC-MS/MS with (−) IMESI. […] A p-value of p≤0.05 and a false discovery rate of q<0.10 were utilized to identify global metabolite alteration and correct for multiple comparisons, respectively.

Db/db mice = test: db/db mouse model of diabetic kidney disease; type: in vivo; conditions: FIG. 14; n=6
Method: Db/db and nondiabetic (db/m) mice (10 wk old) were treated with MC16 or vehicle for 3 wk and euthanized.

[2] = MC16-treated 'old' mice vs saline-treated 'old' mice
[3] = MC16-treated 'old' mice vs saline-treated 'young' control mice

For `CCN1C(=O)C(Cc2cccc(OC)c2O)(OC(=O)N(C)C)c2cc(Cl)ccc21` (stereo not shown) [MC16, 5-chloro-1-ethyl-3-(2-hydroxy-3-methoxybenzyl)-2-oxoindolin-3-yl dimethylcarbamate], the BCs decreased [1, 2] was 68 BCs, the BCs increased [1, 2] was 72 BCs and the “biochemicals (BCs) statistically different” value [1, 2] was 140 BCs. For the same molecule, the BCs decreased [1, 3] was 129 BCs, the BCs increased [1, 3] was 214 BCs and the “biochemicals (BCs) statistically different” value ([1]; MC16-treated 'old' mice vs saline-treated 'young' control mice, 1.0 mg/kg every other day, 21 days, 1,010 BCs detected) was 343 BCs. The weight (Db/db mice) was “weight loss”.
